Some of the results follow.

Amino acid sequences for entries named in this document (tags omitted).
UniProt Q0JBA9, entry or part of it: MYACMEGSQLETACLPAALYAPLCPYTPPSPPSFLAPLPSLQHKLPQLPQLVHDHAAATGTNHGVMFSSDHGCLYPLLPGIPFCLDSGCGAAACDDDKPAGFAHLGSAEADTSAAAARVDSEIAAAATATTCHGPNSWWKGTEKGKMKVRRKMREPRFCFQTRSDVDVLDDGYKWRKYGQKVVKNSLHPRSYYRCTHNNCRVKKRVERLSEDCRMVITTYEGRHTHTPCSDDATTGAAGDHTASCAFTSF

This assay deals with OsWRKY34 (Oryza sativa, UniProt Q0JBA9 1-250). The assay is described as follows: protein-binding microarray (RPBM); PBS, 2% BSA, 51.3 ng/ul salmon testes DNA, 50 uM zinc acetate, 200 nM TF, 25 C, 1 h; high values mean tight binding. Particulars: protein: recombinant; tags: N-terminal polyhistidine and DsRed monomer fusion (pET32a); label: CyDye5-dUTP incorporated in the synthesized complementary strand; 3' TTTTT single-stranded linker to array surface; dsDNA, one strand shown. The essentials: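 Transcription factors were made in E. coli BL21-CodonPlus as N-terminal fusions to a polyhistidine tag and DsRed, then purified on Ni–NTA. After primer extension with Cy5-dUTP and blocking with 2% BSA, a custom Agilent array was exposed for 1 h at 25 °C to 200 nM protein in PBS, 2% BSA, salmon testes DNA and 50 µM zinc acetate. Washed arrays were scanned on an Axon 4000B, and the binding signal is per-feature fluorescence intensity in arbitrary units.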
For “CTTCTTCGTTGCATTCATCTTGCTAGCTAGCTTAGCAATGCGGAGTCACCTAGTGCAG”, the binding signal was 8640 fluorescence intensity (a.u.).

For “TAACACCAAATCTATTGGTCTCTTGTCCTCATCACCAAACCGGAGTCACCTAGTGCAG”, the binding signal is 8870 fluorescence intensity (a.u.). With “ATCTTTGGTGTTTCTTTGCGTATTTGTTATGATGATACCACGGAGTCACCTAGTGCAG” the figure was 8070 fluorescence intensity (a.u.). With “AGGGTTGACTTTACTTCTTTGGGCCTCTCAGATCTGTTCTCGGAGTCACCTAGTGCAG” the figure was 15900 fluorescence intensity (a.u.); with “TAGCGGTTGGGGCAGGGGCCGTTCGGTTTCGCGGTCAAGCCGGAGTCACCTAGTGCAG”, 10500 fluorescence intensity (a.u.). As for “CGATAAACCTTACCCTATTTAATTTTCCCTACTGAATTTTCGGAGTCACCTAGTGCAG”, the binding signal is 8980 fluorescence intensity (a.u.). With “CATGGGTGATATTTGGGATGTTCTTTTAAATCTTCATATACGGAGTCACCTAGTGCAG” the figure was 8480 fluorescence intensity (a.u.); with “TCGACAAGCTAGATCCACACACAACAATAATCGCAACTATCGGAGTCACCTAGTGCAG”, 8490 fluorescence intensity (a.u.); with “CTCGCATCAGCCGCGTCATTTCTCACGTTTTTCCCACGTCCGGAGTCACCTAGTGCAG”, 10800 fluorescence intensity (a.u.). Next, “TAGTATCGGAGTATATCTTATTGTACCTGCTCTAACAATTCGGAGTCACCTAGTGCAG”: 8240 fluorescence intensity (a.u.); “TTCGTGTCGCGATTTTCATGCAAATTGTACAATTAGTTTACGGAGTCACCTAGTGCAG”: 8290 fluorescence intensity (a.u.). As for “TCTGAAATCCTGCAGCTCCTATCTCTCTTTCATCTTTCTTCGGAGTCACCTAGTGCAG”, the binding signal is 11400 fluorescence intensity (a.u.). With “CTCTCACACAGTCTCTCTCTCTCTCTCTCTCTCTCTCTCTCGGAGTCACCTAGTGCAG” the figure was 9900 fluorescence intensity (a.u.). Next, “AAGTATCCGTAATTTCGTGTTTTTTTTTTTGCATGCAACCCGGAGTCACCTAGTGCAG”: 8130 fluorescence intensity (a.u.); “ATGCAGACTTCTTATTAGCTTTGTTCCTTCCCTTCTTTTGCGGAGTCACCTAGTGCAG”: 9760 fluorescence intensity (a.u.). Next, “CCTTCGCTGTTACCACCTCTCCGCCCACCAAACGGGCTGACGGAGTCACCTAGTGCAG”: 13900 fluorescence intensity (a.u.); “ATACTAGGAATATACTGGCTTGTTCTTCGTGAGATGCATACGGAGTCACCTAGTGCAG”: 9780 fluorescence intensity (a.u.); “AGATTGTCTTGTTTTTCACCCTGTGAAATTCGCTCTCATCCGGAGTCACCTAGTGCAG”: 10600 fluorescence intensity (a.u.).

For the sequence “TTTGTTGATTTGTTTTGGTTGGATTGATCTGTCGCTTATACGGAGTCACCTAGTGCAG”, the binding signal is 14100 fluorescence intensity (a.u.). Next, “TTGCTCTATCTTTTTCCGTTTGGCCTTTTTTTGACGGTCACGGAGTCACCTAGTGCAG”: 13500 fluorescence intensity (a.u.).

Regarding “AAACTTTGCATTTTCCCATCACATCAACCTGTCATACACACGGAGTCACCTAGTGCAG”, the binding signal is 10800 fluorescence intensity (a.u.). With “TAGCCACAGTTTTGCTGACGTTCTCTTTTATCTGTTTGCTCGGAGTCACCTAGTGCAG” the figure was 10300 fluorescence intensity (a.u.). In the case of “GGTTGAGGAACAATGCAGCGGTTAGGGTGAAATTTCGCTCCGGAGTCACCTAGTGCAG”, the binding signal was 8500 fluorescence intensity (a.u.). Take “CGATGTTGTGGGCTGCCTGTTGAATTGATCAAGTGCTAATCGGAGTCACCTAGTGCAG”: the binding signal is 8180 fluorescence intensity (a.u.).

For the sequence “CACTGCGTTTCCACACTTCCACCACCACCACCACCACGACCGGAGTCACCTAGTGCAG”, the binding signal is 12300 fluorescence intensity (a.u.). Regarding “CAACCACCTAGTCCCTGCTCACGAAGCCACGATCTTATCCCGGAGTCACCTAGTGCAG”, the binding signal is 8640 fluorescence intensity (a.u.). Next, “GCGGTGGTGGACAGTCCCAGACTGACTTGTGGTGGGGACTCGGAGTCACCTAGTGCAG”: 9560 fluorescence intensity (a.u.); “CACTCTCCCCGTCGGGCCGTCCCGTGCACGTTAATCCAACCGGAGTCACCTAGTGCAG”: 8650 fluorescence intensity (a.u.); “GTCGTGCCATCAGTTCTGACCGCATACGCATATATATATACGGAGTCACCTAGTGCAG”: 10500 fluorescence intensity (a.u.). With “CTCTACTAATGCTAATTTGTCTTGTCCTGAGTTAGTTGTTCGGAGTCACCTAGTGCAG”, the binding signal was 8270 fluorescence intensity (a.u.). For “GACTCTTCTATTAGTACCTACACATATGGCAGTGAGACTCCGGAGTCACCTAGTGCAG”, the binding signal is 8740 fluorescence intensity (a.u.).

Take “ACTTTAATAGGCCTCCAGTCCATCAAGGCCCATAATCTCTCGGAGTCACCTAGTGCAG”: the binding signal was 9310 fluorescence intensity (a.u.). With “CCCTCTCACTTTCCTGGAATTAATACGCCCATTGTGCACACGGAGTCACCTAGTGCAG” the figure was 8180 fluorescence intensity (a.u.). Next, “ATTATTTATTTTATTTGTGACTTACTTTATTATCCAAATTCGGAGTCACCTAGTGCAG”: 8050 fluorescence intensity (a.u.); “GTCCCGTGCTTGTTTTTCTTTTCGCATTGTAAATAACTTTCGGAGTCACCTAGTGCAG”: 10200 fluorescence intensity (a.u.). With “TTAAATTTGCGTGCCATATATATATGTTGATCACTGACCACGGAGTCACCTAGTGCAG” the figure was 8470 fluorescence intensity (a.u.); with “GTGGCGCTGTCCCGTATTCGCATATAAGGACCGATTCCTGCGGAGTCACCTAGTGCAG”, 9010 fluorescence intensity (a.u.). Take “CCGCCGCCGCTCGTCCGGGCCTCGCCTCGCCTCCGCGACCCGGAGTCACCTAGTGCAG”: the binding signal is 8220 fluorescence intensity (a.u.). With “GCTGCATGTTCATCTTGTTGTCTCGCTAACGCCTATAGTCCGGAGTCACCTAGTGCAG” the figure was 8410 fluorescence intensity (a.u.); with “GCTCGTATTGTTGGCTTCCATGTGATTCCTAGCAGGTATTCGGAGTCACCTAGTGCAG”, 9230 fluorescence intensity (a.u.); with “GTGAGCCGGTCCAATATATACACGTCGTACTCCCGAGAGGCGGAGTCACCTAGTGCAG”, 8690 fluorescence intensity (a.u.). Next, “CTTTCACCCGGACAACTCATGAGAAGCAATTTTCCATCTACGGAGTCACCTAGTGCAG”: 8370 fluorescence intensity (a.u.).

The record behind these values is paper PMC7819943, “Rice protein-binding microarrays: a tool to detect cis-acting elements near promoter regions in rice”.
